Data as given in PubChem BioAssay AID1159578 (Peter MacCallum Cancer Centre, 2015).
Screen: 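siRNA pools altering how lymphatic endothelial cells close a scratch wound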 (primary screen). Cells: human lymphatic endothelial cells. Reagent: siRNA pool against human genes, 40 nM. Time to read-out: 48 h after transfection. Measurement: 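Cells stained with dye and imaged after a scratch; covered wound area and nuclei counted, duplicates averaged, migration set against mock wells and turned into a robust z-score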. Scale: migration robust z-score: higher = faster migration into the scratch; nuclei per well: higher = more cells in the well. Active means: 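Pools averaging fewer than 3300 nuclei are never called; remaining pools count as changed when migration robust z lies outside -2 to 2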. Calls: active = migration changed; inactive = no migration change, or too few cells.
The deposit covers about 18,000 reagents; below is a part drawn at random. About 1,030 of them (5.7%) count as active. 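Inactive calls also include pools with fewer than 3300 nuclei, whose migration was not assessed.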 Raw values vary from plate to plate and are shown uncorrected. Further read-outs or replicates are left out here. No sequences are given here.

GABRA4 (GeneID 2557)
- migration robust z-score: 1.69
- nuclei per well, duplicate mean: 4046
- outcome: inactive

GJD4 (GeneID 219770)
- migration robust z-score: 0.05
- nuclei per well, duplicate mean: 6092
- outcome: inactive

CYS1 (GeneID 192668)
- migration robust z-score: -0.3
- nuclei per well, duplicate mean: 5456
- outcome: inactive

MISO1 (GeneID 285315)
- migration robust z-score: 0.55
- nuclei per well, duplicate mean: 5946
- outcome: inactive

ATP4A (GeneID 495)
- migration robust z-score: 0.18
- nuclei per well, duplicate mean: 5258
- outcome: inactive

MSH6 (GeneID 2956)
- migration robust z-score: -1.1
- nuclei per well, duplicate mean: 6852
- outcome: inactive

ERCC4 (GeneID 2072)
- migration robust z-score: 0.13
- nuclei per well, duplicate mean: 5422
- outcome: inactive

OR4F16 (GeneID 81399)
- migration robust z-score: -1.36
- nuclei per well, duplicate mean: 5036
- outcome: inactive

HNF4A (GeneID 3172)
- migration robust z-score: 0.44
- nuclei per well, duplicate mean: 6271
- outcome: inactive

CLTA (GeneID 1211)
- migration robust z-score: 0.6
- nuclei per well, duplicate mean: 4332
- outcome: inactive

DPY30 (GeneID 84661)
- migration robust z-score: -0.47
- nuclei per well, duplicate mean: 7091
- outcome: inactive

RAB4B (GeneID 53916)
- migration robust z-score: -0.11
- nuclei per well, duplicate mean: 3477
- outcome: inactive

2 entries from above, ordered by “migration robust z-score”, descending.
ERCC4 (GeneID 2072)
- migration robust z-score: 0.13
- nuclei per well, duplicate mean: 5422
- outcome: inactive

MSH6 (GeneID 2956)
- migration robust z-score: -1.1
- nuclei per well, duplicate mean: 6852
- outcome: inactive
